The data set deals with the molecule itself. Put plainly: cryo-EM structure; purified Slo (2-3 mg/ml) in 0.003% LMNG, 0.0003% CHS, 20 mM Tris-HCl pH 7.7, 320 mM KCl, 10 mM CaCl2, 10 mM MgCl2; four samples: Ca2+-bound apo, Ca2+-free apo (50 mM EDTA), with verruculogen, with emodepside; homotetramer, C4 symmetry (C2 around emodepside).

B1: Drosophila melanogaster Slowpoke (Slo), isoform J, residues 1-1180 with 13 mutations, C-terminal Rho1D4 tag (natural protein, UniProt Q03720-14 1-1180, looked up)
chain: MASGLIDTNFSSTLANGMSGCDQSTVESLADDPTDSPFDADDCLKVRKYWCFLLSSIFTFLAGLLVVLLWRAFAFVCCRKEPDLGPNDPKQKEQKASRNKQEFEGTFMTEAKDWAGELISGQTTTGRILVVLVFILSIASLIIYFVDASSEEVERCQKWSNNITQQIDLAFNIFFMVYFFIRFIAASDKLWFMLEMYSFVDYFTIPPSFVSIYLDRTWIGLRFLRALRLMTVPDILQYLNVLKTSSSIRLAQLVSIFISVWLTAAGIIHLLENSGDPLDFDNAHRLSYWTCVYFLIVTMSTVGYGDVYCETVLGRTFLVFFLLVGLAIFASCIPEIIDLIGTRAKYGGTLKNEKGRRHIVVCGHITYESVSHFLKDFLHEDREDVDVEVVFLHRKPPDLELEGLFKRHFTTVEFFQGTIMNPIDLQRVKVHEADACLVLANKYCQDPDAEDAANIMRVISIKNYSDDIRVIIQLMQYHNKAYLLNIPSWDWKQGDDVICLAELKLGFIAQSCLAPGFSTMMANLFAMRSFKTSPDMQSWTNDYLRGTGMEMYTETLSPTFIGIPFAQATELCFSKLKLLLLAIEIKGAEEGADSKISINPRGAKIQANTQGFFIAQSADEVKRAWFYCKACHEDIKDETLIKKCKCKNLATFRKGVRAVQMVGRASDITRDREDTNLLNRNVRRPNGTGNGTGGMHHMNNTAAAAAAAAAAGKQVNKVKPTVNVSRQVEGQVISPSQYNRPTSRSSGTGTQNQNGGVSLPAGIADDQSKDFDFEKTEMKYDSTGMFHWSPAKSLEDCILDRNQAAMTVLNGHVVVCLFADPDSPLIGLRNLVMPLRASNFHYHELKHVVIVGSVDYIRREWKMLQNLPKISVLNGSPLSRADLRAVNVNLCDMCCILSAKVPSNDDPTLADKEAILASLNIKAMTFDDTIGVLSQRGPEFDNLSATAGSPIVLQRRGSVYGANVPMITELVNDGNVQFLDQDDDDDPDTELYLTQPFACGTAFAVSVLDSLMSTTYFNQNALTLIRSLITGGATPELELILAEGAGLRGGYSTVESLSNRDRCRVGQISLYDGPLAQFGECGKYGDLFVAALKSYGMLCIGLYRFRDTSSSCDASSKRYVITNPPDDFSLLPTDQVFVLMQFDPGLEYKPPAVRAPAGGRGTNTQGSGVGGGGSNKDDNS
notes: synthetic gene, codon optimised for insect cells; numbers count on: NP_001014658.1 (isoform J); The final model comprises L44-G1145 with several disordered loops missing; also called Drosophila Slo; Dm Slo; source: Trichoplusia ni (T.ni) insect cells, baculovirus, purified (Rho1D4 agarose, SEC on Superose 6 increase, in LMNG/CHS); not shown: Rho1D4 (joined by a GSSG linker), C-terminal, kept
Regarding B1, the “stoichiometry N” value was 4.

Source of the values: article PMC8660915, “Small molecule modulation of the Drosophila Slo channel elucidated by cryo-EM” (Nature Communications, 2021).
